Data from publication PMC3314957.
These are yes or no findings as the source states them, for the method shown. In cells and extracts the contact can be indirect. Some binding calls cover weakened binding; strength is not graded here. For some of these results: Sequences can lack the tags named with a protein.

By UniProt entry, the sequences of proteins in these tests, tags left out.
UniProt Q99418: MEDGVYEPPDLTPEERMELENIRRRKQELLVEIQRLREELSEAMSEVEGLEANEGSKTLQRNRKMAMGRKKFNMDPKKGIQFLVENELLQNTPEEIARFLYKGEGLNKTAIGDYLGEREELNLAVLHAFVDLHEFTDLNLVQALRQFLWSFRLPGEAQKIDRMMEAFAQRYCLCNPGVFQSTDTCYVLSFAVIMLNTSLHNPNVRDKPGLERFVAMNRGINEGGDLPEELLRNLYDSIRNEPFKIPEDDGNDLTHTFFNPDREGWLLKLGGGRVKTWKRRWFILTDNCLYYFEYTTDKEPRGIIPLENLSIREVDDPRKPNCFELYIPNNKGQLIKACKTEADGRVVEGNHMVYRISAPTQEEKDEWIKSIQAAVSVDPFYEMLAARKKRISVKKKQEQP
UniProt P84077: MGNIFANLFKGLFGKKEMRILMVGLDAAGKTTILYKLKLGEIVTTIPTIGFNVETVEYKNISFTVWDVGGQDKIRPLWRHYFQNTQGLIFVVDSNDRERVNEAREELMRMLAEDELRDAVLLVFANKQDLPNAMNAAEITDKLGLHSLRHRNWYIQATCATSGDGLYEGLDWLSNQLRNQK
UniProt Q007T5: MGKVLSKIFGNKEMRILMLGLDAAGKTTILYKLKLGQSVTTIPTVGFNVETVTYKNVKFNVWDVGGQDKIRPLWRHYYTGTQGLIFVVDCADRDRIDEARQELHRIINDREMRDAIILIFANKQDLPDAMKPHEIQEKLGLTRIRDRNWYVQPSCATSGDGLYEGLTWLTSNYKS
UniProt Q007T2: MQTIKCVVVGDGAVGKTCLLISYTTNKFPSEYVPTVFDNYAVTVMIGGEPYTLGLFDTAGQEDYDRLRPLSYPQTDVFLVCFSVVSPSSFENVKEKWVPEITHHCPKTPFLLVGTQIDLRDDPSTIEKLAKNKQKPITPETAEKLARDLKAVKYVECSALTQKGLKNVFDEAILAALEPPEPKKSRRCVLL

T1: Salmonella guanine nucleotide exchange factor (GEF) SopE (Salmonella enterica serovar Typhimurium) (UniProt O52623)
T1 sequence: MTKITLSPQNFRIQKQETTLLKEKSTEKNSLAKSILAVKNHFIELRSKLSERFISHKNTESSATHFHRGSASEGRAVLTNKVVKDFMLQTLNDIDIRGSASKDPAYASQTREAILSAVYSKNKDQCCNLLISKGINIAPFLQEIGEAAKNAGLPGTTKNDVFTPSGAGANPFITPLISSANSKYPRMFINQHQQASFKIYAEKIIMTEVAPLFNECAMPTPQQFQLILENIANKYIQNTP


Columns and labels:
ARNO (cytohesin2) = ARNO (cytohesin2) (UniProt Q99418); test: pull-down; purified GEF (SopE, ARNO or ARNO E156D) bound on silica beads coated with a phospholipid bilayer (PL beads), incubated in porcine brain extract with GTPγS (20 min, RT); beads isolated at 1000 g, washed ten times in HKSM; recruited proteins analysed by SDS-PAGE, mass spectrometry and immunoblotting; only the target purified
[1] = target: T1, Salmonella guanine nucleotide exchange factor (GEF) SopE (Salmonella enterica serovar Typhimurium); test: as above
HA-tagged Arf1 = HA-tagged Arf1 (UniProt P84077); test: co-IP; GAT assay: detergent-soluble fraction of HeLa cells expressing Arf1-HA (alone, with ARNO, infected with Salmonella strains, or treated with SecinH3) incubated with 50 μg purified GST-GGA3-GAT 1-313 (1 hr, 4°C); Arf1-HA precipitated with HA-agarose; immunoblot with anti-GST and anti-HA; only the binder purified

Row | binding (HA-tagged Arf1) | Molecule | binding (ARNO (cytohesin2)) | binding [1]
1 |  | Arf6 (from UniProt Q007T5 1-175) | binds | 
2 |  | Cdc42 (from UniProt Q007T2 1-191) | binds | binds
3 | binds | GST-GGA3-GAT^1-313 (domain or fragment, UniProt Q9NZ52 1-313) MAEAEGESLESWLNKATNPSNRQEDWEYIIGFCDQINKELEGPQIAVRLLAHKIQSPQEWEALQALTVLEACMKNCGRRFHNEVGKFRFLNELIKVVSPKYLGDRVSEKVKTKVIELLYSWTMALPEEAKIKDAYHMLKRQGIVQSDPPIPVDRTLIPSPPPRPKNPVFDDEEKSKLLAKLLKSKNPDDLQEANKLIKSMVKEDEARIQKVTKRLHTLEEVNNNVRLLSEMLLHYSQEDSSDGDRELMKELFDQCENKRRTLFKLASETEDNDNSLGDILQASDNLSRVINSYKTIIEGQVINGEVATLTLPD |  | 
